In PubChem BioAssay AID445 (National Center for Advancing Translational Sciences (NCATS), 2006) one finds AC50 data, which are given here for 63 molecules.

The other results are listed elsewhere or left out. The main result of the screen is listed elsewhere. These columns were measured beside it and carry no call. Compounds called inactive in the main read-out are mostly missing here. The note in brackets gives the kind of curve behind each potency; many fits are weak.

A short description of this experiment: IkB Signaling. The note with it: ABC-DLBCL IkBa-CBG/CBR dual luciferase ratio (green luciferase fused to IkBa over red control in OCI-Ly3 lymphoma cells), 4 h. In short, it runs like this:
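In this assay, an IκBα–CBG68 fusion accumulates when IKK-driven degradation is blocked; native CBR normalizes for cell number. OCI-Ly3 cells were treated 4 h with compound and doxycycline, then green and red light read after Chroma-Glo addition.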

Where [1] appears, read: measured here: control luc red channel unless noted.
Setting [2] is: measured here: IkB-luc green channel.
[3] abbreviates: measured here: control luc red channel.

Take `CCc1ccccc1NC(=O)N1CCc2c([nH]c3ccccc23)C1c1ccc(C)cc1` (stereo not given): under setting [1], the half-maximal activity concentration (AC50) is 7.94 µM [falling, partial curve].

Regarding `COc1ccc(NC(=O)c2c(NC(=O)COc3ccccc3)sc3c2CCC(C)C3)cc1` (stereo not given), the AC50 under setting [1] was 3.98 µM [falling, full curve].

As for `O=C(Nc1ccccc1C(F)(F)F)c1ccc2oc(=O)c(S(=O)(=O)c3ccc(F)cc3)cc2c1`, the AC50 reads like this: under setting [2], 3.98 µM [rising, full curve]; under setting [3], 25.1 µM [falling, partial curve].

As for `O=C(NCCC1=CCCCC1)c1ccc2c(=O)n3nc(Nc4ccccc4)sc3nc2c1`, the AC50 under setting [1] was 31.6 µM [falling, single point].

As to `Cc1ccc(NC(=O)CSc2nnc3[nH]c(=O)cc(-c4ccccc4)n23)cc1Cl`, under setting [1], the AC50 was 20 µM [falling, partial curve].

Turning to `Cc1ccc(C(=O)Nc2nc(COc3ccccc3)cs2)s1`, under setting [1], the half-maximal activity concentration (AC50) was 5.01 µM [falling, partial curve].

Regarding `CCCn1c(=O)c(C(=O)NCc2ccccn2)c(O)c2ccccc21`, the AC50 is, setting by setting: under setting [2], 39.8 µM [rising, single point]; under setting [3], 25.1 µM [falling, single point].

Regarding `COc1ccc(-c2noc(CCC(=O)Nc3ccc(C(F)(F)F)cc3)n2)cc1`, the AC50 under setting [1] is 7.94 µM [falling, partial curve].

For `CCCCOc1ccc(S(=O)(=O)Nc2ccc(-c3ccc(N4CCC(C)CC4)nn3)cc2)cc1`, under setting [1], the AC50 was 2 µM [falling, full curve].

Consider `COc1ccc(S(=O)(=O)Nc2ccc(-c3cn4ccsc4n3)cc2)cc1C`, for which the AC50 under setting [1] is 6.31 µM [falling, partial curve].

On to `O=C(O)COc1cccc(-c2ocnc2-c2nc(-c3ccccc3)c(-c3ccccc3)o2)c1`, for which, under setting [1], the AC50 was 0.398 µM [falling, full curve].

Consider `CCOc1ccc(CCNC(=O)C2CCN(C(=O)c3cc4sccc4n3CC)CC2)cc1OCC`, for which the AC50 under setting [1] was 20 µM [falling, single point].

On to `C=CCc1c(C)nc2nc(SCC(=O)Nc3ccc(C)c(C)c3)nn2c1C`, for which, under setting [1], the AC50 was 20 µM [falling, partial curve].

Regarding `Cc1cccc(CSc2nc(-c3cccs3)ccc2C#N)c1`, under setting [1], the AC50 is 0.0631 µM [rising, full curve, poor fit].

As to `Cc1ccc(NC(=O)CSc2nncn3c2cc2sccc23)cc1F`, the AC50 under setting [1] is 10 µM [falling, partial curve].

As for `Cc1nn(-c2ccc(N3CCCC3)nn2)c(C)c1CCC(=O)Nc1ccccc1`, the AC50 under setting [1] is 20 µM [falling, partial curve].

On to `CCCCOC(=O)c1ccc(NC2=NS(=O)(=O)c3ccccc32)cc1`, for which the AC50 under setting [1] was 2.51 µM [falling, partial curve].

Turning to `Cc1ccc(-c2nc3n(n2)C(=O)CC(c2ccc(C)cc2)S3)cc1` (stereo not given), the AC50 under setting [1] was 31.6 µM [falling, single point].

Turning to `COc1cccc(-c2ccc3c(N)c(C(=O)c4ccc(F)cc4)sc3n2)c1`, the concentration at half-maximal activity (AC50) under setting [1] is 10 µM [falling, partial curve].

In the case of `Oc1ccccc1-c1cc(C(F)(F)C(F)F)[nH]n1`, under setting [1], the AC50 was 10 µM [falling, partial curve].

For `CCC(=O)Nc1cccc(NC(=O)c2cc3ccccc3o2)c1`, the AC50 under setting [1] was 1.26 µM [falling, full curve].

As to `NC(=O)c1ccc(-c2nc(-c3ccc4c(c3)OCO4)c(-c3ccccn3)[nH]2)cc1`, the AC50 under setting [1] was 15.8 µM [falling, partial curve].

In the case of `COc1ccc(CNc2ncnc3c2cnn3-c2ccc(Cl)cc2)cc1`, the AC50 under setting [1] is 3.98 µM [rising, partial curve, poor fit].

Consider `COc1ccc(Nc2ccc3cc(S(=O)(=O)N4CCCC4)ccc3n2)cc1OC`, for which, under setting [1], the AC50 was 0.794 µM [rising, full curve].

As for `N#Cc1nc(-c2ccco2)oc1NCCc1ccccc1`, under setting [1], the AC50 is 0.794 µM [rising, full curve, poor fit].

Take `Cc1cc(N2CCN(C)CC2)nc2ccc(NC(=O)Nc3ccc(F)cc3F)cc12`: under setting [1], the AC50 is 20 µM [falling, partial curve].

Turning to `COc1ccc(S(=O)(=O)N2CC(O)CC2C(=O)OCC(=O)Nc2ccc(Cl)cn2)cc1` (stereo not given), the AC50 under setting [1] is 5.01 µM [falling, partial curve].

As to `Cc1ccc2[nH]c(=O)c3cc(C(=O)NCc4cccc(Cl)c4)sc3c2c1`, the AC50 under setting [1] was 31.6 µM [falling, single point].

For `COc1ccccc1-c1noc(CSc2nnc(-c3ccccc3)n2-c2ccc(C)c(C)c2)n1`, the AC50 under setting [1] is 15.8 µM [falling, partial curve].

On to `CC(=O)c1ccc(NC(=O)CSc2nc(-c3ccccc3C)nc3c2c(=O)n(C)c(=O)n3C)cc1`, for which the AC50 under setting [1] was 0.398 µM [falling, full curve].

In the case of `CCOC(=O)c1c(C)oc2nc(C)nc(N(C)Cc3ccccc3)c12`, the AC50 under setting [1] was 15.8 µM [falling, single point].

For `O=C(CSc1ncc(-c2ccc(Cl)cc2)[nH]1)Nc1ccccc1F`, under setting [1], the AC50 is 3.98 µM [rising, single point].

Turning to `Cc1ccc(S(=O)(=O)N2CCCC2C(=O)Nc2ccc(Br)cc2)cc1` (stereo not given), under setting [1], the AC50 was 15.8 µM [falling, single point].

Take `O=C(C1CCCN(S(=O)(=O)c2cccc3nonc23)C1)N1CCN(c2cccc(C(F)(F)F)c2)CC1` (stereo not given): under setting [1], the AC50 is 15.8 µM [falling, partial curve].

Turning to `O=C(c1cc(-c2cccs2)on1)N1CCN(c2ccccc2)CC1`, under setting [1], the AC50 was 0.1 µM [falling, full curve].

As for `COc1ccccc1N1CCN(c2c(CN3CCCC3)c(=O)oc3ccccc23)CC1`, the AC50 under setting [1] is 5.01 µM [falling, partial curve].

In the case of `COC(=O)c1ccc(COC(=O)c2c(C)nn(Cc3ccccc3Cl)c2Cl)o1`, the concentration at half-maximal activity (AC50) under setting [1] is 15.8 µM [falling, partial curve].

Consider `Cc1ccc(-n2nnnc2SCC(=O)N2CCc3ccccc3C2)cc1`, for which the AC50 under setting [1] is 31.6 µM [falling, single point].

Regarding `O=C(C1CC1)N1CCc2cc(S(=O)(=O)NCCC3=CCCCC3)ccc21`, the AC50 under setting [1] was 15.8 µM [falling, partial curve].

As to `Cc1ccc(OCC(=O)N(Cc2nc(-c3ccccc3)no2)C(C)C)cc1C`, the concentration at half-maximal activity (AC50) under setting [1] was 39.8 µM [falling, partial curve].

Take `CCCOc1ccc(C(=O)N2CCN(c3ccc(N)cc3Cl)CC2)cc1`: the AC50 under setting [1] is 25.1 µM [falling, single point].

Take `Cc1ccc(S(=O)(=O)N2CCCc3cc(NS(=O)(=O)c4ccccc4)ccc32)cc1`: the AC50 under setting [1] was 39.8 µM [falling, single point].

With `COC(=O)c1ccc([C@H]2Nc3ccc(S(=O)(=O)Nc4ccc(F)cc4)cc3[C@H]3C=CC[C@H]32)cc1`, the AC50 under setting [1] was 15.8 µM [falling, partial curve].

Turning to `CCC(=O)N1c2ccccc2C(C)(c2ccccc2)CC1(C)C` (stereo not given), the AC50 under setting [1] is 10 µM [falling, partial curve].

Regarding `CC(C)(C)OC(=O)N1CCC(c2c(C(=O)NCc3ccccc3)cnn2-c2ccc(F)cc2)CC1`, under setting [1], the AC50 was 12.6 µM [falling, partial curve].

As for `Cc1ccc(NC(=O)c2cc(S(=O)(=O)N3CCCCCC3)ccc2F)cc1F`, under setting [1], the AC50 was 1.26 µM [falling, full curve].

Take `CC(C)Oc1ccc(NC(=O)c2cc3ccccc3o2)cc1`: under setting [1], the AC50 was 25.1 µM [falling, single point].

In the case of `C/C(N)=C(/C#N)C(=O)CSc1nnnn1-c1ccc(C)cc1C`, the AC50 under setting [1] is 12.6 µM [falling, partial curve].

With `COc1ccc(CCNc2oc(COc3cccc(C)c3)nc2C#N)cc1OC`, under setting [1], the AC50 was 20 µM [falling, partial curve].

With `Cc1sc2c(c1C)c(=O)n(Cc1ccccc1)c(=O)n2CC(=O)N(C)c1ccccc1`, the concentration at half-maximal activity (AC50) under setting [1] was 15.8 µM [falling, partial curve].

For the molecule `CCCNC(=O)c1cnn2c(C(F)F)cc(-c3ccccc3)nc12`, the AC50 under setting [1] was 39.8 µM [falling, single point].

As to `O=C(COc1cccc(Cl)c1)N1CCC(c2nc3ccccc3o2)CC1`, under setting [1], the AC50 is 31.6 µM [falling, single point].

As for `Cc1nc2c(-c3ccccc3)c(C)nn2c(C)c1CCC(=O)NCCc1ccccc1`, under setting [1], the AC50 was 39.8 µM [falling, single point].

As to `CC(C)c1ccc(NC(=O)N2CCN(c3ccc(Cl)c(Cl)c3)CC2)cc1`, the AC50 under setting [1] is 5.01 µM [falling, partial curve].

In the case of `Cc1ccc(N2CCN(C(=O)c3c(C)oc4ncnc(N5CCCCC5)c34)CC2)c(C)c1`, the AC50 under setting [1] is 15.8 µM [falling, single point].

As for `CCOC(=O)c1cccc(NC(=O)CCc2nc(-c3ccccc3F)no2)c1`, the AC50 under setting [1] was 12.6 µM [falling, partial curve].

For `C=C(C)Cn1c(N2CCC(Cc3ccccc3)CC2)nc2c1c(=O)[nH]c(=O)n2C`, the AC50 under setting [1] was 39.8 µM [falling, single point].

On to `O=C(NC1CC(=O)N(c2ccc(Cl)cc2)C1)C1CCCC1` (stereo not given), for which the AC50 under setting [1] was 3.98 µM [rising, single point].

With `COc1ccc(NC(=O)CSc2nc3c(oc4ccccc43)c(=O)n2-c2ccccc2)cc1OC`, under setting [1], the AC50 is 39.8 µM [falling, single point].

Turning to `CCC(C)NC(=O)c1ccc2c(c1)nc1n2CCCCC1` (stereo not given), the AC50 under setting [1] is 25.1 µM [falling, single point].

`COc1ccccc1CNC(=O)CCCCn1c(=O)c2ccccc2n(Cc2ccccc2C)c1=O`: the AC50 under setting [1] was 3.98 µM [rising, partial curve, poor fit].

`COCCN1Cc2cccc(C(=O)Nc3ccc4c(c3)OCCO4)c2C1=O`: the AC50 under setting [1] is 1 µM [rising, full curve, poor fit] [measured here: IkB-luc green channel].

Consider `CC(=O)c1c(C)n(-c2ccc(Cl)cc2)c2ccc(OC(=O)COc3ccccc3)cc12`, for which the AC50 under setting [1] is 10 µM [falling, partial curve].
